The target in this test is mCerulean3-Bcl-XL (human) (UniProt Q07817). The experiment in a line: FRET or BRET; FLIM-FRET in live BMK-DKO (Bax and Bak knockout) cells expressing mCer3-Bcl-XL, Venus-tagged BH3 protein transiently expressed; untreated, DMSO or 20 uM ABT-263.

The chains behind the UniProt entries cited, without tags or fusion partners.
UniProt Q07817: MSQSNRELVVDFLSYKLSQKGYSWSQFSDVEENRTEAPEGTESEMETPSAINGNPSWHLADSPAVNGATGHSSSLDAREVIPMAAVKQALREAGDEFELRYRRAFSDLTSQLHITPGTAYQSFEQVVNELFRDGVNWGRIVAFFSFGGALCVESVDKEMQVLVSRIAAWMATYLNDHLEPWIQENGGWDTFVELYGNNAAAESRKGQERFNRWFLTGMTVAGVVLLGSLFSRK

Results are given in words; binding and its absence hold for the method and conditions named. Binding seen in cells or lysates may run through a third protein. Some entries that bind do so weakly or less than the wild type.

“Venus-BimEL (from UniProt O54918-1 1-196)”: the binding entry is “binds”.

For the origin of these results see publication PMC6414199, “Bim escapes displacement by BH3-mimetic anti-cancer drugs by double-bolt locking both Bcl-XL and Bcl-2” (eLife, 2019).
